From the supplement of paper PMC5949888
Most values lie at the floor of the assay. Slopes are relative: functional sequences can read slightly below zero.

system: Saccharomyces cerevisiae PS128 hsf1 delta, HSF1(1-493) fusion; assay: growth estimate (transactivation domain function in HSF1 fusion, heat-shock survival) (a.u. (slope of normalised read count over time)); higher = stronger growth at 37°C, i.e. more transactivation activity; settings: library: random library

Q: MYAREQIVAPFATAGE was tested. Which growth estimate did it give?
A: < -0.25

Q: With CRGGCWDNLSTRPEID as the substance, how does the growth estimate read?
A: < -0.25

Q: For YLS, which growth estimate is on record?
A: < -0.25

Q: YSVWLAIDEQSSPQ was tested. Which growth estimate did it give?
A: -0.222

Q: How did the growth estimate turn out when VGSVYQLGRPS was run?
A: < -0.25

Q: With PGMPAIIYSVGMLEVFDLYR as the substance, how does the growth estimate read?
A: < -0.25

Q: Which growth estimate does the source give for YCDADRVSEARASGQPYDVA here?
A: < -0.25

Q: Which growth estimate does the source give for DLFDKMLDELGSYPS here?
A: -0.13

Q: How did the growth estimate turn out when VARSSFACVSMYTRPLNDCY was run?
A: < -0.25

Q: Which growth estimate does the source give for PQTWATVLD here?
A: < -0.25

Q: With LDQSCSTQRFLQVSI as the substance, how does the growth estimate read?
A: < -0.25

Q: For LTAFSCWEEGKVE, which growth estimate is on record?
A: 0.145

Q: Which growth estimate does the source give for RCRAKDCTLSRHDAARMLKR here?
A: < -0.25

Q: For TLA, which growth estimate is on record?
A: < -0.25

Q: Which growth estimate does the source give for LGVNFVSHEVGAGAAARPYH here?
A: < -0.25

Q: With GGTWLS as the substance, how does the growth estimate read?
A: < -0.25

Q: Which growth estimate does the source give for SKAAHSVVT here?
A: < -0.25

Q: How did the growth estimate turn out when KNHMRGMSTTVSGAQITSGS was run?
A: -0.246

Q: With HRGSRSLWESDT as the substance, how does the growth estimate read?
A: < -0.25

Q: Which growth estimate does the source give for RLSAGRKPRIILHVKRRSKR here?
A: < -0.25

Q: Which growth estimate does the source give for DRRLCRS here?
A: < -0.25

Q: How did the growth estimate turn out when WNDVYLLQHWA was run?
A: < -0.25

Q: With QGECRIGKRYGCT as the substance, how does the growth estimate read?
A: < -0.25

Q: Which growth estimate does the source give for LSG here?
A: < -0.25

Q: Which growth estimate does the source give for RNAG here?
A: -0.0399

Q: How did the growth estimate turn out when SGGLKAVNVDGGVHNCPAYP was run?
A: < -0.25

Q: Which growth estimate does the source give for PREPLVGIGGFAPPSL here?
A: < -0.25

Q: Which growth estimate does the source give for TVNSRAQFWSDMID here?
A: < -0.25

Q: Which growth estimate does the source give for TRHDGETGHRIRSTSVSRYT here?
A: < -0.25

Q: For SNSSPLCLTRSKKRERRHVG, which growth estimate is on record?
A: < -0.25

Q: REIHDCAAGRPNWRPTRQDA was tested. Which growth estimate did it give?
A: < -0.25

Q: ASPYRQALHLHSPSLSYCPH was tested. Which growth estimate did it give?
A: < -0.25

Q: For VLRFTLISLDSTGMVCEQRV, which growth estimate is on record?
A: < -0.25

Q: With NCSILM as the substance, how does the growth estimate read?
A: < -0.25

Q: QFRKRTQAHGGRVGGPRVSD was tested. Which growth estimate did it give?
A: < -0.25

Q: For AVVVNQR, which growth estimate is on record?
A: < -0.25

Q: For LHSPYTWDIHLYSPAGHLVQ, which growth estimate is on record?
A: < -0.25

Q: With RKRHPSLPL as the substance, how does the growth estimate read?
A: < -0.25

Q: For LIFTFVARN, which growth estimate is on record?
A: < -0.25

Q: Which growth estimate does the source give for GTGGQGYDLVKSE here?
A: < -0.25

Q: Which growth estimate does the source give for LRKSEVLGFGCLNSSGFFEL here?
A: -0.125

Q: SVHLLGRFGYIVGFDTQNPS was tested. Which growth estimate did it give?
A: < -0.25

Q: Which growth estimate does the source give for KGQSVLIMQLPAVHAGAPWR here?
A: < -0.25

Q: How did the growth estimate turn out when SRQSIDRNPGNNIFVHNQRA was run?
A: < -0.25

Q: How did the growth estimate turn out when LRA was run?
A: < -0.25

Q: Which growth estimate does the source give for RFMEK here?
A: < -0.25

Q: Which growth estimate does the source give for HMTTHD here?
A: < -0.25

Q: How did the growth estimate turn out when NSNTVVR was run?
A: < -0.25

Q: Which growth estimate does the source give for CRVNTSVIWGRTRRLRRYGL here?
A: < -0.25

Q: For GGTLNFGAHRTRIRGEVSYE, which growth estimate is on record?
A: < -0.25

Q: For FIRLSLGGGSSAMWSIRICC, which growth estimate is on record?
A: < -0.25

Q: VFVYPSKLSGANNWQKL was tested. Which growth estimate did it give?
A: < -0.25

Q: For LLWSGCGYSPARVEDR, which growth estimate is on record?
A: < -0.25

Q: LVLHFGTAFL was tested. Which growth estimate did it give?
A: < -0.25

Q: With KNVNQPSQS as the substance, how does the growth estimate read?
A: < -0.25

Q: Which growth estimate does the source give for QIVEMANKRLRFVSRHKGER here?
A: < -0.25

Q: How did the growth estimate turn out when DFVGDGC was run?
A: < -0.25

Q: Which growth estimate does the source give for AGLPRVSLRAQVASTSVVGI here?
A: < -0.25

Q: Which growth estimate does the source give for AGNGKRSVKADRLRFLVRSH here?
A: < -0.25

Q: For WPVIVEVRAAARSYDPRSLG, which growth estimate is on record?
A: < -0.25

Q: For TKTSLQGVQAKMATRIVKGA, which growth estimate is on record?
A: < -0.25

Q: GTRCLSIIAFTDYGLLERHS was tested. Which growth estimate did it give?
A: < -0.25

Q: How did the growth estimate turn out when ECGDGTSYVR was run?
A: < -0.25

Q: TTAL was tested. Which growth estimate did it give?
A: < -0.25

Q: For RRLAEGTGPCVYYNR, which growth estimate is on record?
A: < -0.25

Q: For YWIALTATKVSMQRGLGFRP, which growth estimate is on record?
A: < -0.25

Q: SSTASGIGTPIQQGEMQPPS was tested. Which growth estimate did it give?
A: < -0.25

Q: With KGTRTAELLLGGDSVRNWWA as the substance, how does the growth estimate read?
A: < -0.25

Q: Which growth estimate does the source give for QELCSLLLLISNDLGRLFLG here?
A: < -0.25

Q: How did the growth estimate turn out when ESVYWATTADIPDRH was run?
A: < -0.25

Q: KRPKSKCCSVGKPLGRRGRR was tested. Which growth estimate did it give?
A: < -0.25

Q: Which growth estimate does the source give for GIKLRAVSLQRVQAW here?
A: < -0.25

Q: SPKLGFMMNVDLRVSHEPRV was tested. Which growth estimate did it give?
A: < -0.25

Q: How did the growth estimate turn out when RHVSKQPARVMLREPDPHN was run?
A: < -0.25

Q: Which growth estimate does the source give for LLVTDDRFKSAPTELSRPPG here?
A: < -0.25

Q: For VIIWSVTLSLVVGGYRLNSR, which growth estimate is on record?
A: < -0.25

Q: Which growth estimate does the source give for ARVSIIVETVVL here?
A: < -0.25

Q: How did the growth estimate turn out when KRASEV was run?
A: < -0.25

Q: QLTVRHP was tested. Which growth estimate did it give?
A: < -0.25

Q: EEAVHRPSLSLSPSP was tested. Which growth estimate did it give?
A: < -0.25

Q: FSLRANKLGSKRELAHQWGV was tested. Which growth estimate did it give?
A: < -0.25

Q: SRNSFSDAYPEEPLYNHARL was tested. Which growth estimate did it give?
A: < -0.25

Q: How did the growth estimate turn out when WEKRS was run?
A: -0.246

Q: Which growth estimate does the source give for DGGNMGSTVWS here?
A: < -0.25

Q: GSPQTLKRYGVRIWSLVSSI was tested. Which growth estimate did it give?
A: < -0.25

Q: How did the growth estimate turn out when NWVILSEQRARRPRDHLLQY was run?
A: < -0.25

Q: TLIPSLGIGGTQGHTFPSPG was tested. Which growth estimate did it give?
A: < -0.25

Q: With QPTARC as the substance, how does the growth estimate read?
A: < -0.25

Q: RFHSRPLATR was tested. Which growth estimate did it give?
A: < -0.25

Q: For EERPLCLGTRVGFPSQ, which growth estimate is on record?
A: < -0.25

Q: How did the growth estimate turn out when YRRRALKTEYEVPRTRTPGY was run?
A: -0.243

Q: For CGKRWRCRTDNFRPCSSHKL, which growth estimate is on record?
A: < -0.25

Q: For CPSVGRRSRLPCTSSRDQRI, which growth estimate is on record?
A: < -0.25

Q: Which growth estimate does the source give for ALVEKKKGSLCHVCVPGV here?
A: < -0.25

Q: For NSCGEYNTSQNTDLPLAY, which growth estimate is on record?
A: < -0.25

Q: With CRKDVDKRRLPDVQ as the substance, how does the growth estimate read?
A: < -0.25

Q: Which growth estimate does the source give for SYLSIPGNCVGRQNCRYHLN here?
A: < -0.25

Q: For GRSVSVFGRLGLHNLVKTSG, which growth estimate is on record?
A: < -0.25

Q: With LAQGDGGHSRRVRRQPAG as the substance, how does the growth estimate read?
A: < -0.25

Q: How did the growth estimate turn out when KFRTPEDVNGPRPARRQYAA was run?
A: < -0.25

Q: How did the growth estimate turn out when PRMHGKSGGCK was run?
A: < -0.25

Q: Which growth estimate does the source give for FAYTLPGASL here?
A: < -0.25

Q: For RDSVAFSIGKTLLGVGSKGV, which growth estimate is on record?
A: < -0.25

Q: Which growth estimate does the source give for GPRLPRSYK here?
A: < -0.25

Q: RRPTGSFLSNSFRAVFGPES was tested. Which growth estimate did it give?
A: < -0.25

Q: How did the growth estimate turn out when LSHQLGGGGTLF was run?
A: 0.106

Q: Which growth estimate does the source give for GSVHESAVLNGGPIMDGRG here?
A: < -0.25

Q: SLVGVESAFRLCRKLLDVTR was tested. Which growth estimate did it give?
A: < -0.25

Q: RFSVHFGGSQFLLTIRSDAL was tested. Which growth estimate did it give?
A: < -0.25

Q: TQLSHRAKGSNAPSLAHLIR was tested. Which growth estimate did it give?
A: < -0.25

Q: How did the growth estimate turn out when HNSHKNGGLQGRSMGHS was run?
A: -0.237

Q: Which growth estimate does the source give for MDGGGTLYTR here?
A: < -0.25

Q: With LHTLLFPIRGRLPCGE as the substance, how does the growth estimate read?
A: -0.158

Q: With PGTFERATAGIGLEIWVDGF as the substance, how does the growth estimate read?
A: < -0.25

Q: How did the growth estimate turn out when LRHPGLISAACQCGLNRLE was run?
A: < -0.25

Q: For NGSGLACVDRS, which growth estimate is on record?
A: < -0.25

Q: For RGDPHVTRL, which growth estimate is on record?
A: < -0.25

Q: How did the growth estimate turn out when NTV was run?
A: < -0.25

Q: How did the growth estimate turn out when PLIRACVSPIYH was run?
A: < -0.25

Q: Which growth estimate does the source give for NTRYMTLEGVRI here?
A: -0.0907

Q: With GPRCGLGQIREIE as the substance, how does the growth estimate read?
A: < -0.25

Q: Which growth estimate does the source give for GSFATSAKRARQQASLNRIL here?
A: < -0.25

Q: With TCPSYIARSAMPA as the substance, how does the growth estimate read?
A: < -0.25

Q: CPFCVENFIGYALR was tested. Which growth estimate did it give?
A: < -0.25

Q: KYLCGRFVIRTIGDWVVFRQ was tested. Which growth estimate did it give?
A: < -0.25

Q: For LCSIKRSIIRLKGRD, which growth estimate is on record?
A: < -0.25

Q: Which growth estimate does the source give for PLVAAYFRQFYCKVLCILRG here?
A: -0.197

Q: With MGCTMLGTRELYNSDRIPGL as the substance, how does the growth estimate read?
A: -0.243

Q: For YWGACLGDSVVERVFVR, which growth estimate is on record?
A: < -0.25

Q: Which growth estimate does the source give for LYWGAILDASRLLKTLPLST here?
A: < -0.25

Q: RSICRLKRKEKDRDPGCEGA was tested. Which growth estimate did it give?
A: < -0.25

Q: For VGCSGSAP, which growth estimate is on record?
A: < -0.25

Q: With QLGHEALIPAGLQ as the substance, how does the growth estimate read?
A: < -0.25

Q: Which growth estimate does the source give for ESLRNRGFRKEDESTRPTGP here?
A: < -0.25

Q: Which growth estimate does the source give for VVFGVPPGRFHDATGSGRAR here?
A: < -0.25

Q: How did the growth estimate turn out when YHRQADVEMRDWCLMAALHL was run?
A: < -0.25

Q: KATRRPAYGLRQCWASTRHV was tested. Which growth estimate did it give?
A: < -0.25

Q: SRRGTTRLYCVMACG was tested. Which growth estimate did it give?
A: < -0.25

Q: For QGEIGALWFCMGPTLLGAPI, which growth estimate is on record?
A: < -0.25

Q: TIPYVQSFTKIGLGAG was tested. Which growth estimate did it give?
A: < -0.25

Q: How did the growth estimate turn out when DIQRGSQNCRGRGQTRSVKR was run?
A: < -0.25

Q: Which growth estimate does the source give for RKAIANLIQYIPNHA here?
A: < -0.25
